Reference: patent publication US10864188B2, “Anti-microbial composition” (SEPTEOS, priority 2010, dated 2020)
For at least one compound, name, drawing or mass did not settle the structure.

Test system: Staphylococcus And Enterococcus
Assay: MIC of pure components in Mueller Hinton gelose
Type: cell-based
Conditions: Staphylococcus And Enterococcus n = 14; in µg/mL

Structure (SMILES): C=C1CC/C=C(\C)CC[C@@H]2[C@@H]1CC2(C)C [Caryophyllene, beta-caryophyllene]
- MIC Range: 1250->10000
